One experiment has as its system MCF7. Description: In vitro cytotoxicity (PrestoBlue). Conditions: Homo sapiens.
The subject of the next experiment is MDA-MB-231. Briefly: In vitro cytotoxicity (PrestoBlue). Conditions: Homo sapiens.

pIC50: −log10 of the molar value.

For orientation: pIC50 means the IC50 on a negative log10 scale, so that one unit is a factor of ten. High values mean a small IC50, low ones a large IC50.

`COc1cccc2c1C(=O)c1c(O)c3c(c(O)c1C2=O)C[C@@](O)(C(=O)CO)C[C@@H]3O[C@H]1C[C@H](N)[C@H](O)[C@H](C)O1` [DOX, doxorubicin]: the pIC50 with MCF7 was 6.89; in the experiment with MDA-MB-231 it was 8.00.
